Test results as given in patent US9493781B2, “Synthetic brassica-derived chloroplast transit peptides” (DOW AGROSCIENCES LLC, priority 2012, dated 2016).
Some results were stated once for a whole list of compounds, not compound by compound.

B1: TraP5: transit peptide TraP5 v2, encoded by SEQ ID NO:27 (protein)
chain: MQLLNQRQALRLGRSSASKNQQVAPLASRPASSLSVSASSVAPAPACSAPAGAGRRAVVVRA
modifications: Chloroplast Transit Peptide
B2: TraP8: chimeric chloroplast transit peptide SEQ ID NO:3; N-terminus from Brassica napus EPSPS CTP, C-terminus from Brassica rapa (protein)
chain: MAQSSRICHGVQNPCVIISNLSKSNQNKSPFSVSLKTHQQQRRAYQISSWGLKKSNNGSVIRPVK
modifications: TraP8 chimeric chloroplast transit peptide
notes: N-terminus from Brassica napus EPSPS CTP, C-terminus from Brassica rapa
B3: TraP23: chloroplast transit peptide TraP23 v2, SEQ ID NO:39 (protein)
chain: MAQINKSANGVRNASLISNFSNTRQAKSPFSLSCGTRLKNSSRGLKKVAVRLIGSRVKVSAS
modifications: Chloroplast Transit Peptide
B4: TraP4: transit peptide TraP4 v2, encoded by SEQ ID NO:26 (protein)
chain: MLARQGGSLRASQCNAGLARRVEVGALVVPRPISVNDVVPHVYSAPLSVARRSCSKSSIRSTRRLQTTVCS
modifications: Chloroplast Transit Peptide

system: Zea mays; experiment: Post-emergence glyphosate tolerance of dgt-28 transformed T0 corn; format: in vivo; conditions: greenhouse
Protocol: Herbicide Tolerance in dgt-28 Transformed Corn. Zea mays dgt-28 transformation events (T0) were allowed to acclimate in the greenhouse and were grown until plants had transitioned from tissue culture to greenhouse growing conditions (i.e., 2-4 new, normal looking leaves had emerged from the whorl). Plants were grown at 27° C. under 16 hour light: 8 hour dark conditions in the greenhouse. The plants were then treated with commercial formulations of DURANGO DMA™ (containing the herbicide glyphosate) with the addition of 2% w/v ammonium-sulfate. Herbicide applications were made with a track sprayer at a spray volume of 187 L/ha, 50-cm spray height. T0 plants were sprayed with a range of glyphosate from 280-4480 g ae/ha glyphosate, which is capable of significant injury to untransformed corn lines. A lethal dose is defined as the rate that causes >95% injury to the B104 inbred.
Post-Emergence Herbicide Tolerance in dgt-28 Transformed T0 Corn. T0 events of dgt-28 linked with TraP4, TraP5, TraP8 and TraP23 were generated by Agrobacterium transformation and were allowed to acclimate under controlled growth chamber conditions until 2-4 new, normal looking leaves had emerged from the whorl. Plants were assigned individual identification numbers and sampled for copy number analyses of both dgt-28 and aad-1. Based on copy number analyses, plants were selected for protein expression analyses. Plants were transplanted into larger pots with new growing media and grown at 27° C. under 16 hour light:8 hour dark conditions in the greenhouse. Remaining plants that were not sampled for protein expression were then treated with commercial formulations of DURANGO DMA™ (glyphosate) with the addition of 2% w/v ammonium-sulfate. Treatments were distributed so that each grouping of plants contained T0 events of varying copy number. Herbicide applications were made with a track sprayer at a spray volume of 187 L/ha, 50-cm spray height. T0 plants were sprayed with a range of glyphosate from 280-4480 g ae/ha glyphosate capable of significant injury to untransformed corn lines. […]

Row | Molecule | Glyphosate rate up to which tolerance was achieved
1 | B1 | up to 4480 g ae/ha
2 | B2 | up to 4480 g ae/ha
3 | B3 | up to 4480 g ae/ha

system: Zea mays; experiment: Glyphosate tolerance of dgt-28 corn in the F1 generation under greenhouse conditions; format: in vivo; conditions: F1/T1 corn, dgt-28 linked with the transit peptide

Row | Molecule | Glyphosate rate up to which robust tolerance was shown
4 | B4 | up to 4480 g ae/ha
5 | B1 | up to 4480 g ae/ha
6 | B2 | up to 4480 g ae/ha
7 | B3 | up to 4480 g ae/ha

system: wheat (Bobwhite MPB26RH); experiment: Glyphosate resistance of T1 dgt-28 wheat events, visual injury scale 21 DAT; format: in vivo; conditions: with the chloroplast transit peptide

Row | Molecule | Glyphosate rate up to which tolerance was achieved
8 | B4 | up to 3360 g ae/ha
9 | B1 | up to 3360 g ae/ha
10 | B2 | up to 3360 g ae/ha
11 | B3 | up to 3360 g ae/ha
